At least one compound was matched to its structure with a doubt left.
Legend:
[1] = system: Axin1-stimulated IFN response; test: Axin1-stimulated IFN and ISG mRNA in OE-Axin1 HEK293 cells pretreated with inhibitors; format: cell-based, human; conditions: OE-Axin1, MOI=2
[2] = system: ISRE activity; test: ISRE_Luc dual-luciferase assay in OE-Axin1 HEK293 cells pretreated with inhibitors; format: cell-based, human; conditions: 10 μM inhibitor, OE-Axin1, MOI=2 for 8 hours
[3] = system: H1N1 influenza A/PR/8/34 virus; test: Viral gene mRNA in OE-Axin1 HEK293 cells pretreated with inhibitors; format: cell-based
[4] = 10 μM inhibitor 6 hours pretreatment

SMILES: Oc1c2ccccc2c2c3c(cccc13)N=N2 [SP600125]
- Axin1-stimulated IFN mRNA expression (IFNβ1, IFNα1, IFNα7, IFNλ1) [1, 4]: successfully blocked
- Axin1-stimulated ISGs expression (OAS1, MX1, IP10) [1, 4]: successfully blocked
- Axin1-regulated Type I and Type III IFN synthesis ([1]; 10 μM inhibitor): the same inhibitory effect in both scenarios
- Axin1-stimulated ISRE activity [2]: successfully blocked
- effect on Axin1-mediated attenuation of influenza virus replication (viral gene mRNA) [3]: failed to reverse Axin1-inhibited virus propagation
